Binding signal data for six sequences are collected here from PMC7862700.

The chains behind the UniProt entries cited, without tags or fusion partners. Where a name states a change or a piece, a line headed by the entry shows the natural chain unless it says otherwise.
UniProt Q00613: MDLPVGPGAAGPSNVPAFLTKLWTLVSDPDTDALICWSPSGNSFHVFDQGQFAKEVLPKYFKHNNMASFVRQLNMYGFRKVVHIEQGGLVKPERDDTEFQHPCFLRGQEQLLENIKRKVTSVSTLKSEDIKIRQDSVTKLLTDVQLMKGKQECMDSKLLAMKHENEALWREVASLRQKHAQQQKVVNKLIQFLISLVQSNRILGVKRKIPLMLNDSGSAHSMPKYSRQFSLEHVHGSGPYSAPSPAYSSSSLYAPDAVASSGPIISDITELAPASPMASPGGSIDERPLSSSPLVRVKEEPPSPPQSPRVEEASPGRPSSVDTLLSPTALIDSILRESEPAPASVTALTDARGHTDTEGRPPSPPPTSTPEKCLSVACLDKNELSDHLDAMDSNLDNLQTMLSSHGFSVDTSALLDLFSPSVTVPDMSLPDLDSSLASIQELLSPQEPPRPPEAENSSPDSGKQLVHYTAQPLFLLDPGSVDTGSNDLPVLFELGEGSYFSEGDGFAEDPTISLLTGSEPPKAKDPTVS

The list shows a part of the results, in another mix than the full data. The list shows a part of the results. For some assays here: The exact form of the protein is not confirmed.

One test concerns the target HSF1 (UniProt Q00613). The experiment in a line: DAPPL (digital affinity profiling via proximity ligation, sequencing). Particulars: 10 mM Tris-HCl pH 7.5, 50 mM NaCl, 1 mM DTT, 4% glycerol, room temperature, 30 min; GST-TFs on glutathione beads, 16-mer random dsDNA library, 0.1% …; high values mean tight binding; double strand, one strand shown; scale: fold enrichment (6-mer frequency, TF over GST control).

The target in another test is T1, ELF2 (UniProt Q15723).
T1 sequence: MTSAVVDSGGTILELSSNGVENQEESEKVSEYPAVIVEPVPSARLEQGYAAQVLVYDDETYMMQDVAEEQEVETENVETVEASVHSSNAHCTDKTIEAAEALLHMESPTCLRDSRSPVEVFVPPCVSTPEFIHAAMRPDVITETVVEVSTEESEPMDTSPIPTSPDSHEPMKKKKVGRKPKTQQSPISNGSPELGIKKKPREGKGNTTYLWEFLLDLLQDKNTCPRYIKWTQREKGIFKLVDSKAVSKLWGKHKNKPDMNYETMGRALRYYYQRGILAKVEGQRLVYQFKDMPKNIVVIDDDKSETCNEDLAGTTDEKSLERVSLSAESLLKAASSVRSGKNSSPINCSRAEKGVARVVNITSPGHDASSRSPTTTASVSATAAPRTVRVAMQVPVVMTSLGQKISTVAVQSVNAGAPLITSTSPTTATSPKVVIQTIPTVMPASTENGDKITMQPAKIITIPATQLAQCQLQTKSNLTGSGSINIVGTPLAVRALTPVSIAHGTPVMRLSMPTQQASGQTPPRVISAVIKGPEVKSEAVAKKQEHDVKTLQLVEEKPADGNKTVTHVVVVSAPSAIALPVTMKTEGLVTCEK
The test is described as above. Particulars: 10 mM Tris-HCl pH 7.5, 50 mM NaCl, 1 mM DTT, 4% glycerol, room temperature, 30 min; GST-TFs on glutathione beads, 16-mer random dsDNA library, 0.1% …; high values mean tight binding; double strand, one strand shown; scale: fold enrichment (6-mer frequency, TF over GST control).

As for AGATCC, the binding signal with HSF1 amounted to 1.11; with ELF2, 1.15.
Sequence AAATTG registered a binding signal in the test with ELF2 of 1.26.
Turning to TTCCCT, the results for the binding signal with HSF1 and with ELF2 were 1.52 and 1.79, respectively.
For the sequence CCTCAT, the binding signal with ELF2 amounted to 1.3.
The same measure, in the same setting: under TGTAGC stands 1.12.
Same read-out and setting: as for CTCTGT, the figure is 1.4.
